The values below come from PMC5386674.

Amino acid sequences for entries named in this document (tags omitted).
UniProt Q13485: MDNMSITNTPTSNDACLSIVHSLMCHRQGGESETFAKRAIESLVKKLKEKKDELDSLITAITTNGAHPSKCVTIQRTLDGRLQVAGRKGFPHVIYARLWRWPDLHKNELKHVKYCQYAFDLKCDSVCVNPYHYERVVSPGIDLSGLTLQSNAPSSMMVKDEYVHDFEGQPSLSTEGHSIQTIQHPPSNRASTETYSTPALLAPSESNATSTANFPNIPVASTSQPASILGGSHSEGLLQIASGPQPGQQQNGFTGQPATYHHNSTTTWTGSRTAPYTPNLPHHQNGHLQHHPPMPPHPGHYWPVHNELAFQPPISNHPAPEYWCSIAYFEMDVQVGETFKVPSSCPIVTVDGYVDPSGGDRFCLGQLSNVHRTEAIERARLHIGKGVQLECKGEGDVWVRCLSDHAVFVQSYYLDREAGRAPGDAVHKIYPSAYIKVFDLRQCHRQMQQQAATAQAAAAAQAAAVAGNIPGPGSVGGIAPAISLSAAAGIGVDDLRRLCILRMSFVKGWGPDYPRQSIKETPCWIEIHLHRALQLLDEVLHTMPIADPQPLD

The target in this assay is T1, WWOX (WW domain-containing oxidoreductase), endogenous human (human (endogenous in THP-1, U937, SK-N-SH, Jurkat, MCF7)) (UniProt Q9NZC7).
T1 sequence: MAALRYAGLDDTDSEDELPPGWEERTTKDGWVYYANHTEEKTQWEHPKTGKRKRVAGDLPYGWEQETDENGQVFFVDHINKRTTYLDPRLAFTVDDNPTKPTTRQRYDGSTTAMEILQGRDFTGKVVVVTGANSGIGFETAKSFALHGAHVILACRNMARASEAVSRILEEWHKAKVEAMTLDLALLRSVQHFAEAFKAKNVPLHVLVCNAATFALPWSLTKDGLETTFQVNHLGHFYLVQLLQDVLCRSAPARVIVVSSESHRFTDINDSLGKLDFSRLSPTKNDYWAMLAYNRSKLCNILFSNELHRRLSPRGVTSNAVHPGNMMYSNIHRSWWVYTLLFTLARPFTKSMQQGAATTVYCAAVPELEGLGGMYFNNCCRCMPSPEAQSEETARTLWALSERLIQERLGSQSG
The assay can be described thus: co-IP; MCF7 cells treated with hyaluronidase PH-20 for 1 hr or hyaluronidase-degraded HA; precipitating antibody not stated.

No constants are given. Whether binding was seen depends on the method and setting. In cells and extracts the contact can be indirect. Some binding calls cover weakened binding; strength is not graded here.

As to “Smad4, endogenous human (from UniProt Q13485 1-552)”, the binding entry was “binds”.
